From US20210008108A1 (ETABLISSEMENT FRANCAIS DU SANG, published 2021)
These are yes or no findings as the source states them, for the method shown. Some entries that bind do so weakly or less than the wild type.

Chains of the proteins cited; added tags and fusions are not shown. Residues count along the entry.
UniProt Q9NPH3, residues 21-359: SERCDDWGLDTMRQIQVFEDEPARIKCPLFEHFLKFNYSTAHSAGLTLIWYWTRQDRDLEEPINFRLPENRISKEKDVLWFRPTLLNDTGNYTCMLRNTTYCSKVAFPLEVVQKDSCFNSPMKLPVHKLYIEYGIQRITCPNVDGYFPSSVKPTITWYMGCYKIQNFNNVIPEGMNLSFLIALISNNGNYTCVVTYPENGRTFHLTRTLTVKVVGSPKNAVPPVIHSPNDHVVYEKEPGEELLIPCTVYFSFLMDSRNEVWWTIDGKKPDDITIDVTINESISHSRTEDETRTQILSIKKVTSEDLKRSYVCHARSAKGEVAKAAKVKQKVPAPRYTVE

Target: recombinant IL-1RAP biotinylated protein (UniProt Q9NPH3)
Experiment: flow cytometry with biotinylated recombinant IL-1RAP on CAR-transduced cells

binding: binds
B1: IL-1RAP CAR (chimeric antigen receptor with the scFv of #E3C3, from pSDY-iC9-IL-1RAPCAR-dCD19) (protein, not shown: small tags and cut ends)
chain: QVQLQQPGAELMMPGASVKVSCEASGYTFTDSWMHWVKQRPGQGLEWIGAIDPSDSYTTYNQKFTGKATLSVDESSNTAYMQLSSLTSEDSAVYYCARYYSGSNYISPFPYWGQGTLVTVSAGGSGGGGSGGGGSVDMESQIQVFVFVFLWLSGVDGDIVMTQSHKFMSTSVGDRVTITCKASLDVSTAVAWYQQKPGQSPKLLIYSASYRYTGVPDRFTGSGSGTDFTFTISSVQAEDLAVYYCQQHYSPPFTFGSGTNLEIK
